In PMC5799161:
No constants are given. Whether binding was seen depends on the method and setting. Some entries that bind do so weakly or less than the wild type.

Protein sequences, listed by entry. Tags and fused reporters are not part of them.
UniProt P62993: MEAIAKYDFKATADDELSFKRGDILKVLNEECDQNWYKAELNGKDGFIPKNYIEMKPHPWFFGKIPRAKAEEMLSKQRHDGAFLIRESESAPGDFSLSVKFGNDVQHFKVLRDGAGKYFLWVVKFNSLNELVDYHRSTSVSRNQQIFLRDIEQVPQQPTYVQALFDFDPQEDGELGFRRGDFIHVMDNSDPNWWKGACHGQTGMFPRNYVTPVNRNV
UniProt P42224: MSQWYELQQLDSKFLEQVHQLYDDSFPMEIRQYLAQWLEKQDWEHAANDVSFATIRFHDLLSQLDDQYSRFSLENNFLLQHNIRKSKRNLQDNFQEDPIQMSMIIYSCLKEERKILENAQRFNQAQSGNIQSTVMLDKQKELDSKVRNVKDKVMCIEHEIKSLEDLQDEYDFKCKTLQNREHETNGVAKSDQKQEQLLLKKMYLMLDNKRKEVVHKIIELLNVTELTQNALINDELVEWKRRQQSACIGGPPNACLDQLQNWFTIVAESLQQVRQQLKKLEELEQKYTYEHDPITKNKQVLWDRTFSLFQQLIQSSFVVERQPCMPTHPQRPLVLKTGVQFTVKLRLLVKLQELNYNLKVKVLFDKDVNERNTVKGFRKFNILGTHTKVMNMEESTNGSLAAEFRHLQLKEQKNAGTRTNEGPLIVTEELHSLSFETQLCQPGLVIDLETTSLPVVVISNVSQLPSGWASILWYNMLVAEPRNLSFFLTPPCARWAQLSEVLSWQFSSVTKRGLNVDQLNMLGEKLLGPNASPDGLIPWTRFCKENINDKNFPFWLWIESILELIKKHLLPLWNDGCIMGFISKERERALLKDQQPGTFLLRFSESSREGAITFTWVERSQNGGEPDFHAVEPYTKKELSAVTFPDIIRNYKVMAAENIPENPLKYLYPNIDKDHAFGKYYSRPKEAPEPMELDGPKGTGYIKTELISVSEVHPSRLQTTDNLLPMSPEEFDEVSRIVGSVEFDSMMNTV

Key:
[1] = biological target: biotinylated Grb2 (SH2-containing protein of the AlphaScreen) (UniProt P62993); test: AlphaScreen or HTRF; biotinylated SH2-containing protein (75 nM STAT3, 30 nM STAT1 or 6 nM Grb2) on streptavidin-coated donor beads, FITC-pTyr peptide (0.05 nM for STAT3, 0.72 nM for STAT1, 0.18 nM for Grb2) on anti-FITC acceptor beads; 10 mM HEPES-NaOH pH 7.4, 50 mM NaCl, 1 mM EDTA, 0.1% NP-40 …; protein incubated with the test compound (MNS) for 15 min, then with the peptide for 90 min
[2] = biological target: biotinylated STAT1 (SH2-containing protein of the AlphaScreen) (UniProt P42224); test: as above

Row | binding [1] | binding [2] | Binder
1 | binds | – | PSYVNVQN (phosphotyrosine (pY) at position 3 of the peptide; FITC on the N-terminus) [FITC-PSpYVNVQN]
2 | – | binds | GYDKPHVL (phosphotyrosine (pY) at position 2 of the peptide; FITC on the N-terminus) [FITC-GpYDKPHVL]
